Results from PubChem BioAssay AID2685 (National Center for Advancing Translational Sciences (NCATS), 2010).
Several values for one entry are separate records, joined by “and”; a condition that tells them apart may be missing. Equal entries are not always repeated. Hit rate of the full screen: of about 320,000 compounds, about 2,100 (0.66%) were called active. The shares of active, inactive and inconclusive entries below differ from those in the screen. Calls follow the shape of the dose curve; as a rule, active = well fitted inhibition curve with a large enough effect in the signal ratio, with a control signal flat (not every such curve was filed as active); inconclusive = small, poorly fitted or top-dose-only effect, or effect the other way, or a change in a side signal; inactive = flat fitted curve, though single readings scatter; the % refers to the signal ratio. A potency beside an inconclusive call is a rough fit, not a confirmed value.

Test: qHTS Assay for Lipid Storage Modulators in Drosophila S3 Cells
Settings: BODIPY lipid droplet fluorescence, 18-24 h, cells fed with added oleic acid; lipid storage change, negative = inhibition: at 46.1 µM (top of the series) unless noted
In short: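 Laser-scanning cytometry quantifies lipid droplet accumulation (500–530 nm total intensity; droplet/cell object ratio) in oleic acid-fed (400 uM added) Drosophila S3 cells treated with a concentration series. 20 uM Triacsin C defined 100% inhibition.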
% is scaled to controls: 0 for no effect and ±100 for the full control effect; potency is read from the fitted curve at half-maximal effect.

SMILES | lipid storage change, negative = inhibition | Potency
COc1ccc(CCNC(=O)c2cc(C3CC3)on2)cc1OC | inconclusive: -14.6% | 
CC(C)(C)SCCNC(=O)c1ccc(CN2CCc3ccccc3C2)cc1 |  | inconclusive: 1.64 µM [activator, partial curve, poor fit]
Cc1nc(C#N)c(N/N=C/c2cccc(Cl)c2)o1 | inconclusive: 32.4% | 
CSc1cccc(CNC(=O)C2CCC(=O)N(CCCN3CCCC3=O)C2)c1 (stereo not drawn) |  | inconclusive: 18.4 µM [activator, partial curve]
CCn1c(C(=O)NCCCc2ccccc2)cc2sccc21 |  | inconclusive: 2.06 µM [activator, full curve, poor fit]
Cc1nnc(SCC(=O)Nc2ccc3c(c2)OCO3)n(N)c1=O | inconclusive: -9.68% | 
O=C(COC(=O)c1ccc(O)cc1O)Nc1nnc(-c2ccccc2)o1 | inconclusive | 
Cc1cccc(C)c1NC(=O)C1(NC(=O)C2CCC(=O)N2)CCCCC1 (stereo not drawn) | inconclusive: 0.759% | 
COc1ccc2cc(S(=O)(=O)NCCCN3CCOCC3)ccc2c1 | inconclusive: -18% | 
COc1cc(C(=O)NNC(=O)C2CC2)cc(OC)c1OC |  | inconclusive: 29.1 µM [falling, single point]
S=c1[nH]nc(-c2ccco2)n1/N=C/c1ccc(Cl)cc1 | inconclusive: -9.36% | 
Cc1cc(C(=O)NC2CCCCC2C)c2ccccc2n1 (stereo not drawn) | inconclusive: 1.73% | 
COc1ccc(C(=O)C2CCCN(C(=O)c3ccnn3C)C2)cc1OC (stereo not drawn) | inconclusive: 23.3% | 
CCOC(=O)c1c(NC(=O)C(C)S(=O)(=O)c2cn(CC)c3ccccc23)sc2c1CCCC2 (stereo not drawn) | inconclusive: -8.01% | 
N#C/C(=C/c1ccc(N2CCCCC2)cc1)c1cccc(F)c1 |  | inconclusive: 29.1 µM [falling, single point]
COc1ccccc1C(=O)NCC(=O)N/N=C/c1cc(Br)ccc1OC(=O)/C=C\c1ccco1 | inconclusive: 199% | 
Cc1cc(C)cc(NC2=NC3(CCCCC3)N=C(N)N2)c1 | inconclusive: -8.49% | 
C#CCn1c(O)c(N=NC(=O)CNC(=O)/C=C/c2ccccc2)c2ccccc21 | inconclusive: 237% | 
Cn1c(C(=O)OCC(=O)NCc2ccco2)cc2sccc21 | inconclusive: 71.4% | 
O=C(O)c1ccc(-n2cccc2/C=N\NC(=O)c2cc3cc(Br)ccc3o2)cc1 |  | inconclusive: 4.11 µM [activator, single point]
Cc1ccc(OC(C)C(=O)N(Cc2cccs2)C2CCS(=O)(=O)C2)cc1C (stereo not drawn) | inconclusive: 15.8% | 
CC(CC12CC3CC(CC(C3)C1)C2)NCc1ccccc1O (stereo not drawn) | inconclusive: -13% | 
O=C(CSc1ncn(-c2ccccc2)n1)Nc1nncs1 |  | inconclusive: 0.13 µM [activator, full curve, poor fit]
CCOc1cc(/C=C/c2cccc[n+]2C)ccc1O | inconclusive: 14.5% | 
O=C(c1ccc2c(c1)OCO2)C1CCCN(C(=O)c2cnn(Cc3ccccc3)c2)C1 (stereo not drawn) | inconclusive: -10.6% | 
COc1ccc(Br)cc1Cn1nnc(C(=O)Nc2ccc3c(c2)OCCO3)c1N | inconclusive: -2.93% | 

SMILES | lipid storage change, negative = inhibition | Potency
Cc1cnc(NC(=O)C2=C(O)c3ccccc3S(=O)(=O)N2C)s1 | inconclusive: -1.78% and inconclusive: 19.9% | 
CCn1c(SCC(=O)NCCCN2CCCC2=O)nnc1-c1cccc(C)c1 | inconclusive: -24.2% | 
Cc1ccc(S(=O)(=O)NCc2ccco2)c(C)c1C |  | inconclusive: 0.0046 µM [activator, full curve, poor fit]
COc1ccccc1N1CCN(Cc2ccc(-c3ccccc3[N+](=O)[O-])o2)CC1 | inconclusive: -21.3% | 
CCN(CC(=O)NCc1ccc(F)cc1)C(=O)CN1CCN(c2ccc(OC)cc2)CC1 | inconclusive: 227% | 
O=c1c2cc(N3CCOCC3)ccc2[nH]c(=S)n1Cc1ccccc1Cl |  | inconclusive: 0.731 µM [falling, full curve, poor fit]
O=C(NC1=NCCS1)c1cc(-c2ccc(-c3ccccc3)cc2)nc2ccccc12 | inconclusive: 37.9% | 
COCCn1c(C)cc(C(=O)COC(=O)Cc2n[nH]c(=O)c3ccccc23)c1C | inconclusive | 
COc1ccc2[nH]cc(/C=C(/C#N)S(=O)(=O)c3ccccc3)c2c1 | inconclusive: -1.58% | 
Cn1c2ccccc2c(=O)c2c(O)cccc21 | inconclusive: 14.9% | 
COc1cccc(CN(C)CC(=O)Nc2ccccc2C(C)C)c1 | inconclusive: 42.7% | 
Cc1nnc(SCC(=O)Nc2sccc2C(N)=O)s1 |  | inconclusive: 0.517 µM [falling, full curve]
CC(Sc1nnc(C(F)(F)F)n1C)C(=O)NC(N)=O (stereo not drawn) | inconclusive: -8.77% | 
COc1ccc(OCC(=O)Nc2cccc(-c3nc4ccccc4[nH]3)c2)cc1 | inconclusive: 17.5% | 
COc1ccc(OCCC(=O)N2CCOCC2)cc1 | inconclusive: 20.3% | 
Cc1cccc(Nc2nc(N)nc(CN3CCN(C)CC3)n2)c1 | inconclusive: 19.3% | 
COc1ccc(NC(=O)CN(C)C(=O)c2ccccc2SCC(=O)N2CCCC2)cc1 | inconclusive: 30.7% | 
O=C1Cc2ccccc2C(=O)N1OCc1ccc(Cl)cc1Cl | inconclusive: -0.0718% | 
CCCC12CN3CC(C)(CN(C1)C3c1ccc3c(c1)OCO3)C2=O (stereo not drawn) |  | inconclusive: 1.84 µM [activator, partial curve]
Nc1nc(-c2ccc(Cl)cc2)nc(-c2ccc(Cl)cc2)n1 |  | inconclusive: 1.16 µM [activator, full curve]
Cc1cc(C)n(-c2cccc(CN(C)Cc3nc(-c4cnccn4)no3)c2)n1 | inconclusive: 37.9% | 
O=C(CC1Nc2ccccc2NC1=O)Nc1ccccc1 (stereo not drawn) |  | inconclusive: 16.4 µM [falling, partial curve, poor fit]
COc1cc(NCCC(=O)c2cccs2)c(OC)cc1Cl | inconclusive: 8.27% | 
COc1ccc(N2C(=O)C3CCCN3C2c2cccs2)cc1 (stereo not drawn) |  | active: 8.2 µM
CCOC(=O)c1sc2nccc(OC)c2c1N=CN(C)C | inconclusive: 5.64% | 
OCCOCCn1c(-c2ccccc2)nc(=S)c2c1CCCC2 |  | inconclusive: 29.1 µM [falling, single point]

SMILES | lipid storage change, negative = inhibition | Potency
Cc1ccc2nc(/C(C#N)=C/c3ccc(-c4ccccc4C(=O)O)o3)[nH]c2c1 |  | inconclusive: 29.1 µM [cytotoxic, single point]
Cc1ccc(CCNC(=O)c2cc(-c3ccncc3)nc3ccc(S(=O)(=O)N4CCOCC4)cc23)cc1 |  | inconclusive: 0.651 µM [activator, single point]
O=C(O)CCCN1C(=O)/C(=C/c2ccncc2)SC1=S | inactive | 
Cc1cc(C)nc(SCC(=O)N/N=C\c2sccc2C)n1 | inconclusive: 0.0247% | 
CCOC(=O)c1ccc(NNC(=O)CC)c([N+](=O)[O-])c1 | inconclusive: -4.83% | 
CSC(=Nc1ccccc1)C(C#N)c1nc2ccccc2[nH]1 (stereo not drawn) | inconclusive: 14.3% | 
CCc1ccc(NC(=O)N(C2CCC(C)CC2)C2CCN(C(C)=O)CC2)cc1 (stereo not drawn) | inconclusive: -2.55% | 
COC(=O)c1c(NC(=O)c2ccc(Br)o2)sc(C)c1C |  | inconclusive: 0.58 µM [activator, full curve]
CC1CCCCN1CCCNC(=O)c1ccc(NC(=O)C2=CSCCO2)cc1 (stereo not drawn) | inconclusive: 91.6% | 
Cc1c(C)c2ccc(OCC(=O)NCCc3c[nH]c4ccccc34)c(C)c2oc1=O |  | inconclusive: 8.2 µM [falling, partial curve]
CN(C)S(=O)(=O)c1ccc(N2CCCC2)c(C(=O)Nc2nc3ccccc3s2)c1 | inconclusive: 16.9% | 
Cc1cc[n+](-c2[nH]c(=O)sc2/C=N/N=C(\[O-])c2ccncc2)cc1C |  | inconclusive: 0.0046 µM [falling, full curve, poor fit]
O=[N+]([O-])c1ccc(O)c2cccnc12 | inconclusive: 6.85% | 
CSCCC(NC(=O)COc1ccccc1)C(=O)N(C)CC(=O)Nc1c(C)cccc1C (stereo not drawn) | inconclusive: 17.5% | 
O=C(Cc1cccs1)N1CCN(S(=O)(=O)c2ccc(F)c(F)c2)CC1 | inconclusive: 3.53% | 
O=C(c1ccoc1)N1CCC2(CC1)Oc1ccc(Cl)cc1C(=O)C21CC(c2ccccc2)=NO1 (stereo not drawn) | inconclusive: 19.5% | 
Cc1ccc(NC(=O)CSc2nnc(-c3ccncc3)o2)cc1 |  | inconclusive: 0.116 µM [falling, partial curve, poor fit]
Cc1nn(-c2ccccc2)c(C)c1NC(=O)COC(=O)c1cc(Br)ccc1O | inconclusive: 35.6% | 
COc1cc(OC)c(OC)cc1CN1CCN(Cc2ccc(SC)cc2)CC1 |  | inconclusive: 3.66 µM [activator, full curve]
O=C(COc1ccc(Br)cc1)N1CCc2ccccc2C1 | inconclusive: -48.1% | 
CCOC(=O)c1[nH]c2ccc(OCC)cc2c1NC(=O)CN1CCCC(C)C1 (stereo not drawn) | inconclusive: 5.86% | 
O=C(O)[C@H](Cc1ccccc1)N1Cc2ccccc2C1=O |  | inconclusive: 2.31 µM [activator, single point]
Cc1ccc(C)n1C(CC(=O)O)c1ccc(C#N)cc1 (stereo not drawn) | inconclusive: 19.9% | 
Cn1c(SCCOc2ccccc2Cl)nnc1-c1ccncc1 |  | inconclusive: 20.6 µM [activator, partial curve, poor fit]
Cc1ccc(S(=O)(=O)N2CCC(C(=O)NCC3CCCCC3)CC2)cc1 | inconclusive: 44% | 
O=C1C2C3C=CC(C4CC34)C2C(=O)N1CCc1ccccc1 (stereo not drawn) | inconclusive: 0.258% | 

Grouped by structure: the entries above containing a nitro group on carbon.
SMILES | lipid storage change, negative = inhibition | Potency
COc1ccccc1N1CCN(Cc2ccc(-c3ccccc3[N+](=O)[O-])o2)CC1 | inconclusive: -21.3% | 
CCOC(=O)c1ccc(NNC(=O)CC)c([N+](=O)[O-])c1 | inconclusive: -4.83% | 
O=[N+]([O-])c1ccc(O)c2cccnc12 | inconclusive: 6.85% | 
